Test results published in PubChem BioAssay AID1671190 (National Center for Advancing Translational Sciences (NCATS), 2021).
In all, about 580,000 compounds went through this assay and about 6,100 (1.1%) were called active. Inconclusive means that the source gave no clear call. Such entries were picked first, then a sample of the others. Calls follow the shape of the dose curve; as a rule, active = well fitted inhibition curve with a large enough effect; inconclusive = small, poorly fitted or top-dose-only effect, or another doubt; inactive = no such curve, though single readings can be large or run the other way. Potencies of inconclusive entries are doubtful fits and often do not repeat.

Amino acid sequences for entries named in this document (tags omitted). A change or cut given only in a name is not applied to a line headed by its entry.
UniProt P18054: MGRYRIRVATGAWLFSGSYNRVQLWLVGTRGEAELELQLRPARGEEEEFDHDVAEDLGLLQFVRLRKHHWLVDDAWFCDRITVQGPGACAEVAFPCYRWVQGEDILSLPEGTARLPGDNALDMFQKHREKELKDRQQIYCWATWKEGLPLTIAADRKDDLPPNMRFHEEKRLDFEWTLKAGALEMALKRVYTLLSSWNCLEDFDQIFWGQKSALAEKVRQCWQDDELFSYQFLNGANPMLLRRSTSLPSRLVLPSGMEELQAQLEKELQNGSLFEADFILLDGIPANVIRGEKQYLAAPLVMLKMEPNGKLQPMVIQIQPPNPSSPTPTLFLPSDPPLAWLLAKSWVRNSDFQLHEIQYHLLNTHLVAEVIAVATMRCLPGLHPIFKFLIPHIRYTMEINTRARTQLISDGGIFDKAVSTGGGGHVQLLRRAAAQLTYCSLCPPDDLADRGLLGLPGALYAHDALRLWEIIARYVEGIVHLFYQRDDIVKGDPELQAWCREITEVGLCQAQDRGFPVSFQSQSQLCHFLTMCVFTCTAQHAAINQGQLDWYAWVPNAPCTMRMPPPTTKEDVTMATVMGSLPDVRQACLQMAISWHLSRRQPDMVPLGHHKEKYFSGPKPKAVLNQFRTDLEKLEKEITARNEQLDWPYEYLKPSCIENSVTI

Target: Polyunsaturated fatty acid lipoxygenase ALOX12 (Homo sapiens) (UniProt P18054)
Test: Primary qHTS assay for inhibitors of human arachidonate 12S-lipoxygenase (ALOX12): Round 2
Settings: purified 12hLO, xylenol orange hydroperoxide absorbance; series mostly up to 108 µM
Procedure, shortened: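 Hydroperoxide product was detected by ferrous iron/xylenol orange as the 573 to 405 nm absorbance ratio. Arachidonic acid at 40 uM (final) was turned over for 30 min at room temperature by 150 nM human 12hLO, pH 7.0 Hepes buffer, after 15 min compound preincubation.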
Potency is read from the fitted curve at half-maximal effect.

| SMILES | Potency |
| --- | --- |
| COc1ccc(CNc2ccnc(-c3ccc4c(c3)OCO4)n2)c(OC)c1 | active: 20 µM |
| CC(C)c1ccccc1NC(=O)CSC1=Nc2ccccc2C2CC=NN12 (stereo not drawn) | inactive |
| CC(C)C[C@@H](CN1CCC[C@H]1CN1C(=O)C(=O)NC[C@@H]1Cc1ccccc1)N1C[C@H](Cc2ccccc2)N(CCc2ccccc2)C(=O)C1=O | inconclusive: 79.4 µM [inhibitor, partial curve, poor fit] |
| CC(=O)N1c2c(cc(Br)cc2S(=O)(=O)NCc2cccnc2)CC1C (stereo not drawn) | inactive |
| CCCNC(=O)N[C@@H]1C[C@H](Cn2cc(C3CC3)nn2)[C@@H](O)[C@H]1O | inconclusive: 35.5 µM [inhibitor, full curve] |
| Cc1cc(C)c(N2C(=O)CCCC2=O)c(Cl)c1 | inconclusive: 79.4 µM [inhibitor, single point] |
| O=C(O)C(Cc1ccccc1)Nc1ccc([N+](=O)[O-])cc1[N+](=O)[O-] (stereo not drawn) | inconclusive: 79.4 µM [inhibitor, partial curve, poor fit] |
| O=c1oc2cc(OCc3nn[nH]n3)ccc2cc1-c1ccc2ccccc2c1 | inconclusive: 35.5 µM [inhibitor, partial curve, poor fit] |
| O=C(CN1CCN(Cc2ccccc2)CC1)Nc1ccc2c(c1)CCC2 | inconclusive: 35.5 µM [inhibitor, partial curve, poor fit] |
| CCN(C(C)=O)C1CCN(C(C)c2ccccc2)C1 (stereo not drawn) | inactive |
| CCCn1c(=O)sc2cc(NC(=O)c3ccccc3OCC)ccc21 | inactive |
| CCCCCCOc1ccc(CNc2cccc3ccccc23)cc1 | active: 4.47 µM |
| COC(=O)c1c(-c2ccccc2)csc1NC1=NS(=O)(=O)c2ccccc21 | inconclusive: 1.78 µM [inhibitor, full curve, poor fit] |
| CS(=O)(=O)NNC(=O)CN1C(=O)C2C3C=CC(C3)C2C1=O (stereo not drawn) | inconclusive: 44.7 µM [inhibitor, partial curve, poor fit] |
| COC(=O)[C@@H]1[C@@H](CO)[C@@H]2Cn3c(cccc3=O)[C@@H]2N1C(=O)c1ccccc1 | inconclusive: 50.1 µM [inhibitor, partial curve, poor fit] |
| Cc1cccc2sc(N(CCN(C)C)C(=O)C3CCN(S(=O)(=O)c4cccs4)CC3)nc12 | inconclusive: 20 µM [inhibitor, partial curve, poor fit] |
| O=S(=O)(NC(=NC1CCCCC1)c1ccccc1F)c1ccccc1 | inactive |
| COc1cc(Cl)ccc1OC1(C)CCN(Cc2ccc(SC)cc2)C1 (stereo not drawn) | inconclusive: 44.7 µM [inhibitor, partial curve, poor fit] |

An excerpt of these results, with tabs.
SMILES	Potency
COc1ccc(CNc2ccnc(-c3ccc4c(c3)OCO4)n2)c(OC)c1	active: 20 µM
O=C(O)C(Cc1ccccc1)Nc1ccc([N+](=O)[O-])cc1[N+](=O)[O-] (stereo not drawn)	inconclusive: 79.4 µM [inhibitor, partial curve, poor fit]
Cc1cccc2sc(N(CCN(C)C)C(=O)C3CCN(S(=O)(=O)c4cccs4)CC3)nc12	inconclusive: 20 µM [inhibitor, partial curve, poor fit]
